For at least one compound, name, drawing or mass did not settle the structure. Some compounds share one wording; it may come from a single statement.
Tests used:
[1] = system: Tourette's Disease Tics, Violence, and ADHD; test: Case history 8, Sibutramine Patient No. 47; format: in vivo, human; conditions: over six years before sibutramine
[2] = system: Tourette's Tics, Asocial Behavior, and Relief of Hyposexuality; conditions: before sibutramine

Compound | response to other medications [1] | response to other medications [2]
CN1CCN(C2=Nc3cc(Cl)ccc3Nc3ccccc32)CC1 [Clozapine] | without any good results | helpful in controlling their behavior and helped somewhat with their verbal tics but produced sedation, worse ADHD, and cognitive problems
O=c1[nH]c2ccccc2n1C1CCN(CCCC(c2ccc(F)cc2)c2ccc(F)cc2)CC1 [pimozide] | – | without success

From patent US6696495B2, “Treatment of disorders secondary to organic impairments” (Snowden Pharmaceuticals, LLC, priority 1998, dated 2004)
